Literature values, collected in patent publication US9434822B2, “Block copolymer, micelle preparation, and anticancer agent containing the same as active ingredient” (Nippon Kayaku Kabushiki Kaisha, priority 2004, dated 2016).

Conditions: cited from earlier work

SMILES: CC(=O)O[C@H]1C(=O)[C@@]2(C)[C@H]([C@H](OC(=O)c3ccccc3)[C@]3(O)C[C@H](OC(=O)[C@H](O)[C@@H](NC(=O)c4ccccc4)c4ccccc4)C(C)=C1C3(C)C)[C@]1(OC(C)=O)CO[C@@H]1C[C@@H]2O [Paclitaxel alone, paclitaxel]
- water solubility: ≤ 1 µg/mL
